From article PMC9644546
No constants are given. Whether binding was seen depends on the method and setting. In cells and extracts the contact can be indirect. Some results given as binding are weak or reduced against the parent protein; the word gives no strength.

By UniProt entry, the sequences of proteins in these tests, tags left out. Residues count along the entry.
UniProt Q15465, residues 24-462: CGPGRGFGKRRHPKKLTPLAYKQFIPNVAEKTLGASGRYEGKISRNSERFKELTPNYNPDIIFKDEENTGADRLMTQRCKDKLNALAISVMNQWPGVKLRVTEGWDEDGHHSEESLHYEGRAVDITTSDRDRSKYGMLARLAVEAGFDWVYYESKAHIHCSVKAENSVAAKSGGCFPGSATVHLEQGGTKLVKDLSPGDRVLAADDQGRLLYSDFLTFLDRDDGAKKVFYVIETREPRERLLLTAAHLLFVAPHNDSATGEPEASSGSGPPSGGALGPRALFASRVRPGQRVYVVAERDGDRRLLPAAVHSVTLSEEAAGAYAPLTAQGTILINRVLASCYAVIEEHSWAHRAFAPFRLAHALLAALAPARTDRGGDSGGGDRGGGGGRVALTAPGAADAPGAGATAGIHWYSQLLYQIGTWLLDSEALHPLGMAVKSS
UniProt Q8IWY4, residues 24-988: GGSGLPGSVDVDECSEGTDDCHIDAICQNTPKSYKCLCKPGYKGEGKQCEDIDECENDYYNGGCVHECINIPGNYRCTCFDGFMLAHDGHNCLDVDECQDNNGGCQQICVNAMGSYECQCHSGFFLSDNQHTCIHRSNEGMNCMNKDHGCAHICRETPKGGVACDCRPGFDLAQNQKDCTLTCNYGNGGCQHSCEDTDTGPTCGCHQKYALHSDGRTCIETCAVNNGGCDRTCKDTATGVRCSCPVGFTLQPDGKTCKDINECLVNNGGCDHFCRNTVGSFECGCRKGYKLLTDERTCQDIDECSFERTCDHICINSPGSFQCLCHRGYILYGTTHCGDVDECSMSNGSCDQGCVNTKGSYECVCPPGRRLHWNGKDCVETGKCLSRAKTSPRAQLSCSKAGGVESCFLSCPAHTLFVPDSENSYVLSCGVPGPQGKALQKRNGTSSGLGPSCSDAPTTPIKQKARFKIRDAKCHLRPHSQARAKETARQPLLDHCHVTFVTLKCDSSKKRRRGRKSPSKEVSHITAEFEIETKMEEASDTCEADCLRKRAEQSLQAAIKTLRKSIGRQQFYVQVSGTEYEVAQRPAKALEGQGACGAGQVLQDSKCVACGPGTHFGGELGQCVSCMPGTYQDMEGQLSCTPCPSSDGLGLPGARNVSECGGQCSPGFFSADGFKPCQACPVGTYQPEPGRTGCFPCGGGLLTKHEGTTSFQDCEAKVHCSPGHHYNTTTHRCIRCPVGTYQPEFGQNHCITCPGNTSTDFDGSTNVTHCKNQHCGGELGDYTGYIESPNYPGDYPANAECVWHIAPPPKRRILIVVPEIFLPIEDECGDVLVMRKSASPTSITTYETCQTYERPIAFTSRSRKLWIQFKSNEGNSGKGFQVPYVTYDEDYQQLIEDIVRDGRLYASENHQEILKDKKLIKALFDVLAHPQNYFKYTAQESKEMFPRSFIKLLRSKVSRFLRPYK

Molecular target: Sonic Hedgehog (Shh) protein (human (endogenous in PLC/PRF/5 and Huh7)) (UniProt Q15465)
Assay: co-IP; magnetic beads with anti-Shh (Santa Cruz, sc-373779) or IgG control, incubated with lysates of PLC and Huh7 cells overnight at 4°C; washed with PBST; SDS-PAGE/immunoblot

binding: binds
Substance: SCUBE1 (from UniProt Q8IWY4 24-988)
